# Test results from the supplement of paper PMC8728848.
# The list shows a part of the results.
# Tests used:
# Test in all cases: glycan array binding signal (z-score within array); higher = stronger binding
# Conditions in all cases: glycan notation: IUPAC condensed, linker removed
# [1] = target: GlcNAc(b1-2)[GlcNAc(b1-4)]Man(a1-3)[GlcNAc(b1-4)][GlcNAc(b1-2)Man(a1-6)]Man(b1-4)GlcNAc(b1-4)GlcNAc
# How it was run: (§1)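 The binding signal is a Z-score computed within each array. Data were drawn from 3228 arrays in the Consortium for Functional Glycomics database, restricted to those with a known protein sequence. Scores were averaged over arrays of the same protein sequence at different concentrations or buffers, and over linkers, and negative values can be taken as non-binding.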
# [2] = target: GlcNAc(b1-2)[GlcNAc(b1-4)]Man(a1-3)[GlcNAc(b1-4)][GlcNAc(b1-2)[GlcNAc(b1-6)]Man(a1-6)]Man(b1-4)GlcNAc(b1-4)GlcNAc
# How it was run: as §1
# [3] = target: GlcNAc(b1-2)[GlcNAc(b1-4)]Man(a1-3)[GlcNAc(b1-4)][GlcNAc(b1-2)[GlcNAc(b1-6)]Man(a1-6)]Man(b1-4)GlcNAc(b1-4)[Fuc(a1-6)]GlcNAc
# How it was run: as §1
# [4] = target: GlcNAc(b1-2)[GlcNAc(b1-6)]Man(a1-6)[GlcNAc(b1-2)Man(a1-3)]Man(b1-4)GlcNAc(b1-4)GlcNAc
# How it was run: as §1
# [5] = target: GlcNAc(b1-2)[GlcNAc(b1-6)]Man(a1-6)[GlcNAc(b1-2)Man(a1-3)]Man(b1-4)GlcNAc(b1-4)[Fuc(a1-6)]GlcNAc
# How it was run: as §1
# [6] = target: GlcNAc(b1-2)[GlcNAc(b1-6)]Man(a1-6)[GlcNAc(b1-4)][GlcNAc(b1-2)Man(a1-3)]Man(b1-4)GlcNAc(b1-4)GlcNAc
# How it was run: as §1
# GlcNAc(b1-3)Fuc = target: GlcNAc(b1-3)Fuc
# How it was run: as §1
# GlcNAc(b1-3)Gal = target: GlcNAc(b1-3)Gal
# How it was run: as §1
# [7] = target: GlcNAc(b1-3)Gal(b1-3)GalNAc
# How it was run: as §1
# GlcNAc(b1-3)Gal(b1-4)Glc = target: GlcNAc(b1-3)Gal(b1-4)Glc
# How it was run: as §1
# [8] = target: GlcNAc(b1-3)Gal(b1-4)GlcNAc
# How it was run: as §1
# [9] = target: GlcNAc(b1-3)Gal(b1-4)GlcNAc(b1-2)Man(a1-3)[GlcNAc(b1-3)Gal(b1-4)GlcNAc(b1-2)Man(a1-6)]Man(b1-4)GlcNAc(b1-4)GlcNAc
# How it was run: as §1
# [10] = target: GlcNAc(b1-3)Gal(b1-4)GlcNAc(b1-2)Man(a1-3)[GlcNAc(b1-3)Gal(b1-4)GlcNAc(b1-2)Man(a1-6)]Man(b1-4)GlcNAc(b1-4)[Fuc(a1-6)]GlcNAc
# How it was run: as §1
# [11] = target: GlcNAc(b1-3)Gal(b1-4)GlcNAc(b1-2)[GlcNAc(b1-3)Gal(b1-4)GlcNAc(b1-6)]Man(a1-6)[GlcNAc(b1-3)Gal(b1-4)GlcNAc(b1-2)Man(a1-3)]Man(b1-4)GlcNAc(b1-4)GlcNAc
# How it was run: as §1
# [12] = target: GlcNAc(b1-3)Gal(b1-4)GlcNAc(b1-3)Gal(b1-4)GlcNAc
# How it was run: as §1
# [13] = target: GlcNAc(b1-3)Gal(b1-4)GlcNAc(b1-3)Gal(b1-4)GlcNAc(b1-2)Man(a1-3)[GlcNAc(b1-3)Gal(b1-4)GlcNAc(b1-3)Gal(b1-4)GlcNAc(b1-2)Man(a1-6)]Man(b1-4)GlcNAc(b1-4)GlcNAc
# How it was run: as §1
# [14] = target: GlcNAc(b1-3)Gal(b1-4)GlcNAc(b1-3)Gal(b1-4)GlcNAc(b1-2)Man(a1-3)[GlcNAc(b1-3)Gal(b1-4)GlcNAc(b1-3)Gal(b1-4)GlcNAc(b1-2)Man(a1-6)]Man(b1-4)GlcNAc(b1-4)[Fuc(a1-6)]GlcNAc
# How it was run: as §1
# [15] = target: GlcNAc(b1-3)Gal(b1-4)GlcNAc(b1-3)Gal(b1-4)GlcNAc(b1-2)[GlcNAc(b1-3)Gal(b1-4)GlcNAc(b1-3)Gal(b1-4)GlcNAc(b1-6)]Man(a1-6)[GlcNAc(b1-3)Gal(b1-4)GlcNAc(b1-3)Gal(b1-4)GlcNAc(b1-2)Man(a1-3)]Man(b1-4)GlcNAc(b1-4)[Fuc(a1-6)]GlcNAc
# How it was run: as §1
# [16] = target: GlcNAc(b1-3)Gal(b1-4)GlcNAc(b1-3)Gal(b1-4)GlcNAc(b1-3)Gal(b1-4)GlcNAc(b1-2)Man(a1-3)[GlcNAc(b1-3)Gal(b1-4)GlcNAc(b1-3)Gal(b1-4)GlcNAc(b1-3)Gal(b1-4)GlcNAc(b1-2)Man(a1-6)]Man(b1-4)GlcNAc(b1-4)GlcNAc
# How it was run: as §1
# [17] = target: GlcNAc(b1-3)Gal(b1-4)GlcNAc(b1-3)Gal(b1-4)GlcNAc(b1-3)Gal(b1-4)GlcNAc(b1-2)Man(a1-3)[GlcNAc(b1-3)Gal(b1-4)GlcNAc(b1-3)Gal(b1-4)GlcNAc(b1-3)Gal(b1-4)GlcNAc(b1-2)Man(a1-6)]Man(b1-4)GlcNAc(b1-4)[Fuc(a1-6)]GlcNAc
# How it was run: as §1
# [18] = target: GlcNAc(b1-3)Gal(b1-4)GlcNAc(b1-3)Gal(b1-4)GlcNAc(b1-3)Gal(b1-4)GlcNAc(b1-2)[GlcNAc(b1-3)Gal(b1-4)GlcNAc(b1-3)Gal(b1-4)GlcNAc(b1-3)Gal(b1-4)GlcNAc(b1-6)]Man(a1-6)[GlcNAc(b1-3)Gal(b1-4)GlcNAc(b1-3)Gal(b1-4)GlcNAc(b1-3)Gal(b1-4)GlcNAc(b1-2)Man(a1-3)]Man(b1-4)GlcNAc(b1-4)[Fuc(a1-6)]GlcNAc
# How it was run: as §1
# [19] = target: GlcNAc(b1-3)Gal(b1-4)GlcNAc(b1-3)Gal(b1-4)GlcNAc(b1-3)Gal(b1-4)GlcNAc(b1-3)Gal(b1-4)GlcNAc(b1-2)Man(a1-3)[GlcNAc(b1-3)Gal(b1-4)GlcNAc(b1-3)Gal(b1-4)GlcNAc(b1-3)Gal(b1-4)GlcNAc(b1-3)Gal(b1-4)GlcNAc(b1-2)Man(a1-6)]Man(b1-4)GlcNAc(b1-4)GlcNAc
# How it was run: as §1
# [20] = target: GlcNAc(b1-3)Gal(b1-4)GlcNAc(b1-3)Gal(b1-4)GlcNAc(b1-3)Gal(b1-4)GlcNAc(b1-3)Gal(b1-4)GlcNAc(b1-2)Man(a1-3)[GlcNAc(b1-3)Gal(b1-4)GlcNAc(b1-3)Gal(b1-4)GlcNAc(b1-3)Gal(b1-4)GlcNAc(b1-3)Gal(b1-4)GlcNAc(b1-2)Man(a1-6)]Man(b1-4)GlcNAc(b1-4)[Fuc(a1-6)]GlcNAc
# How it was run: as §1
# [21] = target: GlcNAc(b1-3)Gal(b1-4)GlcNAc(b1-3)Gal(b1-4)GlcNAc(b1-3)Gal(b1-4)GlcNAc(b1-3)Gal(b1-4)GlcNAc(b1-2)[GlcNAc(b1-3)Gal(b1-4)GlcNAc(b1-3)Gal(b1-4)GlcNAc(b1-3)Gal(b1-4)GlcNAc(b1-3)Gal(b1-4)GlcNAc(b1-6)]Man(a1-6)[GlcNAc(b1-3)Gal(b1-4)GlcNAc(b1-3)Gal(b1-4)GlcNAc(b1-3)Gal(b1-4)GlcNAc(b1-3)Gal(b1-4)GlcNAc(b1-2)Man(a1-3)]Man(b1-4)GlcNAc(b1-4)[Fuc(a1-6)]GlcNAc
# How it was run: as §1
# [22] = target: GlcNAc(b1-3)Gal(b1-4)GlcNAc(b1-3)Gal(b1-4)GlcNAc(b1-3)GalNAc
# How it was run: as §1
# [23] = target: GlcNAc(b1-3)Gal(b1-4)GlcNAc(b1-3)GalNAc
# How it was run: as §1
# [24] = target: GlcNAc(b1-3)Gal(b1-4)GlcNAc(b1-3)[GlcNAc(b1-3)Gal(b1-4)GlcNAc(b1-3)]GalNAc
# How it was run: as §1
# [25] = target: GlcNAc(b1-3)Gal(b1-4)GlcNAc(b1-6)[Gal(b1-3)]GalNAc
# How it was run: as §1
# [26] = target: GlcNAc(b1-3)Gal(b1-4)GlcNAc(b1-6)[GlcNAc(b1-3)Gal(b1-3)]GalNAc
# How it was run: as §1
# [27] = target: GlcNAc(b1-3)Gal(b1-4)GlcNAc(b1-6)[GlcNAc(b1-3)]Gal(b1-4)GlcNAc
# How it was run: as §1
# GlcNAc(b1-3)GalNAc = target: GlcNAc(b1-3)GalNAc
# How it was run: as §1
# GlcNAc(b1-3)Man = target: GlcNAc(b1-3)Man
# How it was run: as §1
# [28] = target: GlcNAc(b1-3)[GlcNAc(b1-4)][GlcNAc(b1-6)]GlcNAc
# How it was run: as §1
# [29] = target: GlcNAc(b1-3)[GlcNAc(b1-6)]Gal(b1-4)GlcNAc
# How it was run: as §1
# [30] = target: GlcNAc(b1-3)[GlcNAc(b1-6)]GalNAc
# How it was run: as §1
# [31] = target: GlcNAc(b1-4)Gal(b1-4)GlcNAc
# How it was run: as §1
# GlcNAc(b1-4)GlcNAc = target: GlcNAc(b1-4)GlcNAc
# How it was run: as §1
# [32] = target: GlcNAc(b1-4)GlcNAc(b1-4)GlcNAc
# How it was run: as §1
binder,measurement,setting,value
Epa8 (Candida glabrata) (protein) MGSSHHHHHHSSGLVPRGSHMASSRALSDYPLGCSPLLGTKLTPGLSMELYEYPLDNHGIGPHCWDPAYLNPEYPRTGFESHKLIGTAQNVMSLNFEHRTQDCHVEFSNLPASFNFPDQITLTNFTMLLYGYFKPKESGRYRFHMEADDLLLMNLGAGNAFDCCAHEATRNNLGDYIAYDIWAGTRKDVEVFLEKEVFYPLRLFFNNRDGRAALDFSYYLNGATEPGTDIPELLFSLPDGESCPAYI,glycan array binding signal (z-score),[1],-0.683
same,glycan array binding signal (z-score),[2],-0.416
same,glycan array binding signal (z-score),[3],1.43
same,glycan array binding signal (z-score),[4],-0.508
same,glycan array binding signal (z-score),[5],-0.048
same,glycan array binding signal (z-score),[6],-1.37
same,glycan array binding signal (z-score),GlcNAc(b1-3)Fuc,-0.604
same,glycan array binding signal (z-score),GlcNAc(b1-3)Gal,-0.61
same,glycan array binding signal (z-score),[7],-0.123
same,glycan array binding signal (z-score),GlcNAc(b1-3)Gal(b1-4)Glc,-0.331
same,glycan array binding signal (z-score),[8],0.01
same,glycan array binding signal (z-score),[9],-0.041
same,glycan array binding signal (z-score),[10],0.016
same,glycan array binding signal (z-score),[11],0.251
same,glycan array binding signal (z-score),[12],-0.43
same,glycan array binding signal (z-score),[13],-0.033
same,glycan array binding signal (z-score),[14],1.09
same,glycan array binding signal (z-score),[15],3.86
same,glycan array binding signal (z-score),[16],0.826
same,glycan array binding signal (z-score),[17],1.65
same,glycan array binding signal (z-score),[18],3
same,glycan array binding signal (z-score),[19],-0.034
same,glycan array binding signal (z-score),[20],0.18
same,glycan array binding signal (z-score),[21],2.23
same,glycan array binding signal (z-score),[22],0.769
same,glycan array binding signal (z-score),[23],0.255
same,glycan array binding signal (z-score),[24],-0.142
same,glycan array binding signal (z-score),[25],0.62
same,glycan array binding signal (z-score),[26],0.167
same,glycan array binding signal (z-score),[27],-0.086
same,glycan array binding signal (z-score),GlcNAc(b1-3)GalNAc,-0.661
same,glycan array binding signal (z-score),GlcNAc(b1-3)Man,0.325
same,glycan array binding signal (z-score),[28],-0.13
same,glycan array binding signal (z-score),[29],0.492
same,glycan array binding signal (z-score),[30],-0.694
same,glycan array binding signal (z-score),[31],0.746
same,glycan array binding signal (z-score),GlcNAc(b1-4)GlcNAc,0.067
same,glycan array binding signal (z-score),[32],-0.364

# Not a retest: an excerpt of the list.
binder,measurement,setting,value
Epa8 (Candida glabrata) (protein) MGSSHHHHHHSSGLVPRGSHMASSRALSDYPLGCSPLLGTKLTPGLSMELYEYPLDNHGIGPHCWDPAYLNPEYPRTGFESHKLIGTAQNVMSLNFEHRTQDCHVEFSNLPASFNFPDQITLTNFTMLLYGYFKPKESGRYRFHMEADDLLLMNLGAGNAFDCCAHEATRNNLGDYIAYDIWAGTRKDVEVFLEKEVFYPLRLFFNNRDGRAALDFSYYLNGATEPGTDIPELLFSLPDGESCPAYI,glycan array binding signal (z-score),[20],0.18
same,glycan array binding signal (z-score),[21],2.23
